# Measurements reported in PubChem BioAssay AID720505 (Drosophila RNAi Screening Center, 2013).
# Screen: 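Genes needed for store-operated calcium entry in fly cells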 (primary screen)
# Cell system: Drosophila S2R+ cells
# Knock-down reagent: long dsRNA against Drosophila genes
# Conditions: thapsigargin (2 µM) in calcium-free buffer to empty internal stores, then 2 mM calcium added back
# Read-out: 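Stores emptied by 2 µM thapsigargin without calcium, then 2 mM calcium re-added; fluo-4 fluorescence followed by FLIPR in 384-well plates, per-well averaged endpoint, raw; two screen passes, some wells retested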
# Reading the numbers: calcium signal and retest calcium signal: higher = more calcium entry after store depletion
# Active means: 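Knock-downs counted as hits when calcium entry dropped relative to STIM1 positive and Rho1 negative controls present on each plate; roughly 1500 genes called, with reductions of differing size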
# Meaning of the calls: active = called as lowering calcium entry; inactive = not called
# The screen tested about 20,000 reagents; shown is an unselected part of those with a known target gene and a result. In the full data, about 2,100 (10%) got an active call. 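Raw plate signals without normalisation; calls rest on control-based scores that were not deposited; replicate 2 separates called from uncalled poorly.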 A number with no mark means an inactive call. The numbers tell different reagents against one gene apart. A plus sign joins genes that one reagent is predicted to hit. Not given: the amount of reagent, the time to read-out.
target,dsRNA no.,"calcium signal, replicate 1","calcium signal, replicate 2","retest calcium signal, replicate 1","retest calcium signal, replicate 2"
Hacd1,1,123,78.8,,
CG31445,1,83.1,132,,
GatA,1,160,152,,
CG5194,1,102,90.1,,
Cyfip,1,78.1 (active),108,,
CG6678,1,126,230,,
CG13185,1,147,144,,
CAH4,1,142,211,,
Sgf11,1,100,174,,
gek,1,171,118,,
CG10710,1,108,120,,
asRNA:CR43469 + Balat,1,222,113,,
Pisd,1,139,263,,
Ada,1,63 (active),146,,
Lcp4,1,121,93.1,,
CG9117,1,151,87.9,,
CG17896,1,110,140,,
Hs2st,1,99.3,101,,
Su(var)2-HP2,1,174,152,,
RpL32,1,4973 (active),103,97.2,99
Cyp12a5,1,155,133,,
CG10903,1,123,164,,
CG8187,1,79.5 (active),116,,
Ced-12,1,111,143,,
stum,1,169,130,,
stum,2,187,85.2,,
CR4575,1,284,113,,
Ctu2,1,110,112,,
CG30392,1,103,198,,
CG13679,1,110,92.4,6777,79.6
CG13679,2,146,203,,
CG13561,1,141,247,,
CG13063,1,112,123,,
HDAC4,1,135,95.2,,
mRpS31,1,107,86.3,,
Jheh2,1,109,108,,
CG7203,1,112,88.6,,
CG11839,1,268,143,,
Sirt2,1,198,166,,
Mtpalpha,1,90.3,101,,
Jhbp3,1,107,112,,
CG31741,1,94.5,92.9,,
pyd,1,6487,143,,
pyd,2,92.6,97.5,,
pyd,3,73.7 (active),128,,
pyd,4,94.9,169,,
pyd,5,112,111,,
pyd,6,84.8,178,,
pyd,7,102,167,,
pyd,8,156,114,,
pyd,9,107,152,,
Crys,1,112,93.6,,
CG7806,1,162,191,,
Ance-3,1,90.3,95.8,,
Ance-3,2,125,148,,
mRpL9,1,131,147,,
Cpr72Ec,1,138,82.7,,
CG31223,1,170,438,,

13 entries from above, sorted by “calcium signal, replicate 2”, highest first.
target,dsRNA no.,"calcium signal, replicate 1","calcium signal, replicate 2","retest calcium signal, replicate 1","retest calcium signal, replicate 2"
Sirt2,1,198,166,,
CG11839,1,268,143,,
pyd,1,6487,143,,
pyd,3,73.7 (active),128,,
CG13063,1,112,123,,
Jhbp3,1,107,112,,
Jheh2,1,109,108,,
Mtpalpha,1,90.3,101,,
pyd,2,92.6,97.5,,
HDAC4,1,135,95.2,,
CG31741,1,94.5,92.9,,
CG7203,1,112,88.6,,
mRpS31,1,107,86.3,,

The list goes on:
target,dsRNA no.,"calcium signal, replicate 1","calcium signal, replicate 2","retest calcium signal, replicate 1","retest calcium signal, replicate 2"
KLHL18,1,151,104,,
CG32537,1,172,139,,
CG9240,1,107,164,,
NANS,1,140,112,,
Vm34Ca,1,102,113,,
Sec5,1,103,171,,
CG3257,1,134,90.3,,
CG43316,1,99,174,,
LManV,1,89.7,80.7,,
CG3815,1,93.4,88.2,,
CG5781,1,105,90.2,,
CG4789,1,144,150,,
CG7992,1,153,85.5,,
CG7275,1,64.6 (active),110,,
mRpL24,1,93.7,146,,
CG32199,1,93.8,137,,
CG32457,1,6332,154,,
CG32457,2,148,113,,
Drs,1,72.6,99.5,,
CG6044,1,71.5,133,,
ush,1,116,171,,
fs(1)Ya,1,115,151,,
fs(1)Ya,2,101,140,,
CG14258,1,151,154,,
CG6724,1,135,105,,
Amt,1,130,146,,
CG42272,1,70.7,207,,
CG16957,1,105,109,,
CG13871,1,192,162,,
CG7342,1,108,164,,
RpL15,1,69.4 (active),125,,
Pten,1,108,108,,
plu,1,140,116,,
Polr3D,1,123,79.1,,
CG42404,1,120,196,,
Mlc-c,1,109,91.5,,
fsd,1,108,162,,
Kr-h1,1,96.3,177,,
Kr-h1,2,121,198,,
CG3769,1,172,188,,
osi,1,131,116,116,142
Gip,1,153,179,,
Polr1F,1,90.3,156,,
Chmp1,1,124,129,,
Adk3,1,159,84.8,,
lectin-30A,1,167,161,,
CG34051,1,79.1,5154,5281,110
Phm,1,98.5,99.5,,
